These are yes or no findings as the source states them, for the method shown. In cells and extracts the contact can be indirect. Some binding calls cover weakened binding; strength is not graded here.

Protein sequences, listed by entry. Tags and fused reporters are not part of them.
UniProt P23771: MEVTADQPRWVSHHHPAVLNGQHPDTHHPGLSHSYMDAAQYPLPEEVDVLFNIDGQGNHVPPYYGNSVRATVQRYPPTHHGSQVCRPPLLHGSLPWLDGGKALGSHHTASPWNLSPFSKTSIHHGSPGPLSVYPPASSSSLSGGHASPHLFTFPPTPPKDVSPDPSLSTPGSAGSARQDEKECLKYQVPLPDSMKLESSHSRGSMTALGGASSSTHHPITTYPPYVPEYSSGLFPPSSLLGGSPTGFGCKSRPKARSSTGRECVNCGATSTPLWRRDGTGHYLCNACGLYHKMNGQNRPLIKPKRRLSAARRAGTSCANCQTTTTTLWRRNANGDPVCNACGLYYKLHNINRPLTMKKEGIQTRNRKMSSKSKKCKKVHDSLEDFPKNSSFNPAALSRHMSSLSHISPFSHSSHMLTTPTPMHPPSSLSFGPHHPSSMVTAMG
UniProt Q09472: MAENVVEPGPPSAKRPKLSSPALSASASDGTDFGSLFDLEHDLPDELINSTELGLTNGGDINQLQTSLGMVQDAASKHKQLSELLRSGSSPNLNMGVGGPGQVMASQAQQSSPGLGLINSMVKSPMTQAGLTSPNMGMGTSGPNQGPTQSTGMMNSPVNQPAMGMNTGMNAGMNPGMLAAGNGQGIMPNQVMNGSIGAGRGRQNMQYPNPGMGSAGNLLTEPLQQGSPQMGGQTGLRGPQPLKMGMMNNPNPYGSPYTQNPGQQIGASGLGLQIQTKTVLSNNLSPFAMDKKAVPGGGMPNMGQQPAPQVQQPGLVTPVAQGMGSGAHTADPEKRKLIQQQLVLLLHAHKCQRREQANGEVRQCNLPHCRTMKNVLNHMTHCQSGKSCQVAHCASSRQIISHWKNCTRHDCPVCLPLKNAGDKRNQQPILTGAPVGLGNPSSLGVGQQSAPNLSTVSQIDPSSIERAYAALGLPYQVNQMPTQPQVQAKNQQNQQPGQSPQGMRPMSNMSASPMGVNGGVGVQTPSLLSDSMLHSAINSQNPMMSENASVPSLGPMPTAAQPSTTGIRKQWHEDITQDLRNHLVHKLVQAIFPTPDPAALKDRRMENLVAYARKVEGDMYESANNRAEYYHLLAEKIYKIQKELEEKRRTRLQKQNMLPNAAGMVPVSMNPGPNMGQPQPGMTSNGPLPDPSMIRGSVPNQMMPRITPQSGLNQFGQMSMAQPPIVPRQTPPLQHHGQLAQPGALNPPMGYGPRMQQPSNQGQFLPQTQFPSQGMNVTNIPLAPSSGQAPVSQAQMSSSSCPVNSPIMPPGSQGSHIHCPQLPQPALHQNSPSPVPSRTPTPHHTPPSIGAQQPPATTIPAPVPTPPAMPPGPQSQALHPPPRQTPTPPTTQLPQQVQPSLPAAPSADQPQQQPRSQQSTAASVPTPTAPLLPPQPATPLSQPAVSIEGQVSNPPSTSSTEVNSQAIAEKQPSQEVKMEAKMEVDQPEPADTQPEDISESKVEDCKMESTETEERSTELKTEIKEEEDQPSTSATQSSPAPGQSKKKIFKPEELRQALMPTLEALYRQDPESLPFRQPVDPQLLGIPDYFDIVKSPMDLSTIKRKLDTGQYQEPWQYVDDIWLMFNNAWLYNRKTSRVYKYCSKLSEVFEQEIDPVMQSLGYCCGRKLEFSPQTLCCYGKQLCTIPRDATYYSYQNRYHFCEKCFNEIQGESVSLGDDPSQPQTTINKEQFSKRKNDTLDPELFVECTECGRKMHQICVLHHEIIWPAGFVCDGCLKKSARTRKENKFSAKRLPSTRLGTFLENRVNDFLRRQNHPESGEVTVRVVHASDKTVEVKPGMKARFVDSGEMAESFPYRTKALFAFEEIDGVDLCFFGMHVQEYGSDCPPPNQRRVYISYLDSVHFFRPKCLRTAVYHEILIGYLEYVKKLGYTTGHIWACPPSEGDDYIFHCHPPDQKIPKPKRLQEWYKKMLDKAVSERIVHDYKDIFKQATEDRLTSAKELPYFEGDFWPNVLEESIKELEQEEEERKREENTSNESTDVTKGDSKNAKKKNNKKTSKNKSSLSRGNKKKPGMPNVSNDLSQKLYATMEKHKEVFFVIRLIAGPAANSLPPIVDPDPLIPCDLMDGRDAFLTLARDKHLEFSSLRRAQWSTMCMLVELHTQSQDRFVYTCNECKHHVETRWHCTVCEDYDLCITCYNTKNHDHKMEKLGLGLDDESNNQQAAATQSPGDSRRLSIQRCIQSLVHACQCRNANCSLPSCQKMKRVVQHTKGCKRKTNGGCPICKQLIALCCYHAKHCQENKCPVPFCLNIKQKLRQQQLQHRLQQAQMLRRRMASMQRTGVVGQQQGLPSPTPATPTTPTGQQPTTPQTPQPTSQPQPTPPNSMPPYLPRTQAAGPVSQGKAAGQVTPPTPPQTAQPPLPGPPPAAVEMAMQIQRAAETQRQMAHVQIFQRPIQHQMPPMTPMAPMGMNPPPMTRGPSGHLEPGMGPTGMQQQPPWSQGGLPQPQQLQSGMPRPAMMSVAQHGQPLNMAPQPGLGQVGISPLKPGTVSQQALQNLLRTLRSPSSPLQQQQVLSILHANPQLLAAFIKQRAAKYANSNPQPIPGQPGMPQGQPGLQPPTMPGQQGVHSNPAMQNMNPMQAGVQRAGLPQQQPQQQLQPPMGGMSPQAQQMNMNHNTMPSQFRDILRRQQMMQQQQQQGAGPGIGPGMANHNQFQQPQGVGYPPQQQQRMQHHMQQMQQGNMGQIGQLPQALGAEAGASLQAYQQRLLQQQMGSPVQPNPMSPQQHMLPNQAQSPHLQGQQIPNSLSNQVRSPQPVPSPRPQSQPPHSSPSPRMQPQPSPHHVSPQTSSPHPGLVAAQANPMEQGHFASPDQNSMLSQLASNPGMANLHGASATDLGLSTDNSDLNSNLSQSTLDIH

In one assay the target is GFP-tagged GATA-3 (UniProt P23771). The assay is described as follows: co-IP; GFP-tagged GATA-3 and Flag-tagged P300 expressed in HEK293T cells; anti-GFP (or isotype control) immunoprecipitation, immunoblot for Flag and GFP.
For assay [1], the target named is endogenous GATA-3 (human (endogenous in H9)) (UniProt P23771). The assay is described as follows: co-IP; endogenous GATA-3 and P300 co-immunoprecipitated in H9 cells (other cell lines in Fig. S4B); the text also says that A-485 with MG132 did not disrupt p300/GATA-3 binding (Fig. S5D, cells not given).

Consider “Flag-tagged p300 (from UniProt Q09472 1-2414)”, for which, in the assay with GFP-tagged GATA-3, the binding result was “binds”.

Turning to “endogenous p300 (from UniProt Q09472 1-2414)”, the binding result in assay [1] is “binds”.

Values taken from PMC9633835.
